{"sequences": {"note": "Sequences of proteins named here, by UniProt entry; tags and fusion partners are left off. A change or cut given only in a name is not applied to a line headed by its entry.", "UniProt P70336": "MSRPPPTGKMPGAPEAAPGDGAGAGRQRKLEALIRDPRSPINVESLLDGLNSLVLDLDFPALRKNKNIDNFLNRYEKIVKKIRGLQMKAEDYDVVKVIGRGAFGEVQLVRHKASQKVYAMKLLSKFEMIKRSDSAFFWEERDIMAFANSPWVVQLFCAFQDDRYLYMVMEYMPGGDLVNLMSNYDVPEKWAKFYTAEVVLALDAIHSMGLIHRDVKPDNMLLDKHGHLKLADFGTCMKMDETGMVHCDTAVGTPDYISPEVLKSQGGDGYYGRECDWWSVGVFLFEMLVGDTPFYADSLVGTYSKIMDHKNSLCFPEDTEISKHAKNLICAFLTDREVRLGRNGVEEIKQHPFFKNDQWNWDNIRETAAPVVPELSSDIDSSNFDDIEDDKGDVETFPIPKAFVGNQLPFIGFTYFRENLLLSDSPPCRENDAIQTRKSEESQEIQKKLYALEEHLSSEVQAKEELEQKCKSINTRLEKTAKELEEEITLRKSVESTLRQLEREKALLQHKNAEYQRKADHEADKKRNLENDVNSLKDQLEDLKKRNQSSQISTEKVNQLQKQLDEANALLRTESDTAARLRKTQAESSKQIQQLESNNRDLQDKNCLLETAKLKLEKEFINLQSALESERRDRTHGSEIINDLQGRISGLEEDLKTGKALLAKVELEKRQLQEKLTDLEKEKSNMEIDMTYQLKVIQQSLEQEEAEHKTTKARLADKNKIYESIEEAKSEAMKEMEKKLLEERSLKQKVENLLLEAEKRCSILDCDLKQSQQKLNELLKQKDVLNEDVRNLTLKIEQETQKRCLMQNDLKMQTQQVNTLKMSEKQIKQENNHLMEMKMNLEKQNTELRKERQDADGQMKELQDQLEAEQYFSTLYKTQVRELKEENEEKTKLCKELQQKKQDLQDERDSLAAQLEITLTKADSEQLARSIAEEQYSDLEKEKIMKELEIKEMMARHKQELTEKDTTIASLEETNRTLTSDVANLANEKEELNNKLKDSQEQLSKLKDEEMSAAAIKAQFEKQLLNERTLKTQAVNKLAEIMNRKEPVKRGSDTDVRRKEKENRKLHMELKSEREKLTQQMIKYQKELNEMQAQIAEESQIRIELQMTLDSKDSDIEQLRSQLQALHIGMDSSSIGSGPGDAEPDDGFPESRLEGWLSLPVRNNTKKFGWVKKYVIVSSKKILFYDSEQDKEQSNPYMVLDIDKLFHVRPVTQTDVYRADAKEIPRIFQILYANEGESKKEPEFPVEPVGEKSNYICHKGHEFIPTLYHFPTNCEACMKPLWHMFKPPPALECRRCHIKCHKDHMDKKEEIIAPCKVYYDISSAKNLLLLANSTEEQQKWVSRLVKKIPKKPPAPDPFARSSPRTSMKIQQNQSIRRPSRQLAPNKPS"}, "source": "patent US20040191240A1", "about": "“Composition and method for nerve regeneration” (priority 2003, published 2004)", "binders": {"B1": {"name": "recombinant Rho GDI (from pGEX-GST-Rho GDI, GST moiety removed) (protein)", "chain": "MAEQEPTAEQLAQIAAENEEDEHSVNYKPPAQKSIQEIQELDKDDESLRKYKEALLGRVAVSADPNVPNVVVTGLTLVCSSAPGPLELDLTGDLESFKKQSFVLKEGVEYRIKISFRVNREIVSGMKYIQHTYRKGVKIDKTDYMVGSYGPRAEEYEFLTPVEEAPKGMLARGSYSIKSRFTDDDKTDHLSWEWNLTIKKDWKD"}, "B2": {"name": "endogenous Nogo receptor of P9 cerebellum (receptor, UniProt Q99PI8 27-447, looked up)", "chain": "CPGACVCYNEPKVTTSCPQQGLQAVPTGIPASSQRIFLHGNRISHVPAASFQSCRNLTILWLHSNALARIDAAAFTGLTLLEQLDLSDNAQLHVVDPTTFHGLGHLHTLHLDRCGLRELGPGLFRGLAALQYLYLQDNNLQALPDNTFRDLGNLTHLFLHGNRIPSVPEHAFRGLHSLDRLLLHQNHVARVHPHAFRDLGRLMTLYLFANNLSMLPAEVLMPLRSLQYLRLNDNPWVCDCRARPLWAWLQKFRGSSSEVPCNLPQRLADRDLKRLAASDLEGCAVASGPFRPIQTSQLTDEELLSLPKCCQPDAADKASVLEPGRPASAGNALKGRVPPGDTPPGNGSGPRHINDSPFGTLPSSAEPPLTALRPGGSEPPGLPTTGPRRRPGCSRKNRTRSHCRLGQAGSGASGTGDAEGS"}, "B3": {"name": "endogenous Rho GDI of 293T cells (protein)", "chain": "AEQEPTAEQLAQIAAENEEDEHSVNYKPPAQKSIQEIQELDKDDESLRKYKEALLGRVAVSADPNVPNVVVTGLTLVCSSAPGPLELDLTGDLESFKKQSFVLKEGVEYRIKISFRVNREIVSGMKYIQHTYRKGVKIDKTDYMVGSYGPRAEEYEFLTPVEEAPKGMLARGSYSIKSRFTDDDKTDHLSWEWNLTIKKDWKD"}, "B4": {"name": "endogenous p21 of differentiating N1E-115 cells (protein, UniProt P39689 2-159, looked up)", "chain": "SNPGDVRPVPHRSKVCRCLFGPVDSEQLRRDCDALMAGCLQEARERWNFDFVTETPLEGNFVWERVRSLGLPKVYLSPGSRSRDDLGGDKRPSTSSALLQGPAPEDHVALSLSCTLVSERPEDSPGGPGTSQGRKRRQTSLTDFYHSKRRLVFCKRKP"}, "B5": {"name": "endogenous Rho GDI of mouse cerebellar neurons and of N1E-115 cells (protein, UniProt Q99PT1 2-204, looked up)", "chain": "B3 chain with V70I, G73R, S80T, V161M, S175N, D200E"}}, "key": {"GST-p75 ICD (rat)": {"molecular_target": "T1, GST-p75 ICD (rat) (UniProt P07174)", "T1 sequence": "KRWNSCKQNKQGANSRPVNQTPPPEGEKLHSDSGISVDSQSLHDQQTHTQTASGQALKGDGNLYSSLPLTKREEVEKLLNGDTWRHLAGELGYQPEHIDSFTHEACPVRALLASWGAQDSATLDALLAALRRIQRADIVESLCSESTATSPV", "test": "precipitation of GST-p75 ICD and its deletion mutants with recombinant Rho GDI; results for the single mutants not told"}, "[1]": {"molecular_target": "endogenous p75 of mouse post-natal cerebellum / cerebellar neurons (mouse) (UniProt Q9Z0W1)", "test": "co-immunoprecipitation (FIG. 11C)"}, "[2]": {"molecular_target": "amino-terminally FLAG-tagged human p75 (human) (UniProt P08138)", "test": "co-immunoprecipitation with anti-FLAG antibody from 293T cells transfected with FLAG-p75 and HA-RhoA"}, "[3]": {"molecular_target": "amino-terminally FLAG-tagged human p75 (human) (UniProt P08138)", "test": "co-immunoprecipitation from transfected 293T cells (FIG. 6A)"}, "[4]": {"molecular_target": "endogenous Rho-kinase of differentiating N1E-115 cells (UniProt P70336)", "test": "co-immunoprecipitation of endogenous proteins (FIG. 17C)"}, "[5]": {"molecular_target": "endogenous Rho-kinase of differentiating N1E-115 cells (UniProt P70336)", "test": "co-immunoprecipitation of endogenous proteins from differentiating N1E-115 cells (DMSO)"}, "[6]": {"molecular_target": "amino-terminally FLAG-tagged human p75 (human) (UniProt P08138)", "test": "co-immunoprecipitation from N1E-115 cells transfected with FLAG-p75; interaction enhanced by Nogo peptide (4 uM) and MAG-Fc (25 ug/ml)"}}, "note": "Positions count from the first letter of the chain named. Numbers in names are those of the source. Results are given in words; binding and its absence hold for the method and conditions named. For some of these results: Binding seen in cells or lysates may run through a third protein. Some results given as binding are weak or reduced against the parent protein; the word gives no strength. For some of these results: Where a sequence is shown, tags or fusion partners need not be part of it.", "data": [{"binder": "B1", "values": [{"measurement": "binding", "setting": "GST-p75 ICD (rat)", "result": "binds"}]}, {"binder": "B2", "values": [{"measurement": "binding", "setting": "[1]", "result": "binds"}]}, {"binder": "B3", "values": [{"measurement": "binding", "setting": "[2]", "result": "binds"}, {"measurement": "binding", "setting": "[3]", "result": "binds"}]}, {"binder": "B4", "values": [{"measurement": "binding", "setting": "[4]", "result": "binds"}, {"measurement": "binding", "setting": "[5]", "result": "binds"}]}, {"binder": "B5", "values": [{"measurement": "binding", "setting": "[6]", "result": "binds"}]}]}
